# Assay results: PubChem BioAssay AID330 (DTP/NCI, 2004)
# The list does not hold the whole screen: it gathers tests that were run many times, whatever their T/C, doses with no T/C, and many T/C values between a quarter and a half above the control. Further doses and runs are listed elsewhere. T/C gives the treated animals as a percentage of the vehicle group. Some doses have a count of surviving animals in place of a T/C: the source files T/C as zero there, which appears to mark a toxic dose or a test without result, not a measured value. Some survivor counts are full or nearly so, which does not show that the dose was tolerated: survival well below the control is almost never listed, so the zero probably covers shortened survival too. Survivors were counted at the toxicity check, usually on the fifth day, unless a day is given; later deaths do not show. Schedule codes are those of the source, taken here to give the interval after Q, in days (D) or hours (H), and the number of doses after X. Marks such as (2×) give the number of equal values in this list. Some molecules as drawn cover several salts, stereoisomers or complexes of the source; a dose is that of the sample tested. Some entries hold several experiments; their values stand side by side, smallest first. For survival time, this PubChem deposit counts one and a half times the control or more as active, and values a quarter to a half above the control carry no call in these data; other NCI protocols may use other cut-offs. Some T/C values carry the count of animals alive at the toxicity check (mostly the fifth day); without a count, all were alive then.
# Tested on: P388 leukemia ip, CD2F1 mice, survival T/C
# Assay: NCI In Vivo Anticancer Drug Screen. Data for tumor model P388 Leukemia (intraperitoneal) in CD2F1 (CDF1) mice
# Details: T/C endpoint: median survival time, higher T/C = longer survival
# [1] = dose: 100.0 mg/kg/injection, schedule: Q01DX005 (ip), vehicle: saline
# [2] = dose: 240.0 mg/kg/injection, schedule: Q01DX005 (ip), vehicle: saline with Tween-80
# [3] = dose: 200.0 mg/kg/injection, schedule: Q01DX009 (ip), vehicle: saline
# [4] = dose: 400.0 mg/kg/injection, schedule: Q01DX009 (ip), vehicle: Klucel (hydroxypropylcellulose) (HPC)
# [5] = dose: 400.0 mg/kg/injection, schedule: Q04DX002 (ip), vehicle: saline with Tween-80
# [6] = dose: 200.0 mg/kg/injection, schedule: Q01DX009 (ip), vehicle: saline with Tween-80
# [7] = dose: 100.0 mg/kg/injection, schedule: Q04DX003 (ip), vehicle: saline
# [8] = dose: 200.0 mg/kg/injection, schedule: Q04DX003 (ip), vehicle: saline
# [9] = dose: 400.0 mg/kg/injection, schedule: Q04DX003 (ip), vehicle: saline
smiles,measurement,setting,value
COc1cccc2c1C(=O)c1c(O)c3c(c(O)c1C2=O)C[C@@](O)(C(C)=O)C[C@@H]3OC1CC(N2CCOCC2)C(O)C(C)O1 (stereo partly drawn),survivor count,"dose: 1.56 mg/kg/injection, schedule: Q04DX003 (ip), vehicle: water",3 of 6 on day 9
same,survivor count,"dose: 3.13 mg/kg/injection, schedule: Q04DX003 (ip), vehicle: water",0 of 6 on day 9
same,survivor count,"dose: 6.25 mg/kg/injection, schedule: Q04DX003 (ip), vehicle: water",0 of 6 on day 9 and 1 of 6 on day 9
same,survivor count,"dose: 12.5 mg/kg/injection, schedule: Q04DX003 (ip), vehicle: water",0 of 6 on day 9 and 1 of 6 on day 9
same,survivor count,"dose: 25.0 mg/kg/injection, schedule: Q04DX003 (ip), vehicle: water",0 of 6 on day 9 (2×)
same,survivor count,"dose: 50.0 mg/kg/injection, schedule: Q04DX003 (ip), vehicle: water",0 of 6 on day 9 (2×)
same,survivor count,"dose: 100.0 mg/kg/injection, schedule: Q04DX003 (ip), vehicle: water",0 of 6 on day 9
same,T/C,"dose: 200.0 micrograms/kg/injection, schedule: Q04DX003 (ip), vehicle: water",145 % of control
CCOC(=N)N1[C@H](C)[C@@H]1C,survivor count,"dose: 50.0 mg/kg/injection, schedule: Q01DX005 (ip), vehicle: Klucel (hydroxypropylcellulose) (HPC)",3 of 6
same,survivor count,"dose: 100.0 mg/kg/injection, schedule: Q01DX005 (ip), vehicle: Klucel (hydroxypropylcellulose) (HPC)",0 of 6
same,survivor count,[1],0 of 6
NS(=O)(=O)c1ccc(Nc2c3ccccc3nc3ncccc23)cc1,survivor count,"dose: 7.5 mg/kg/injection, schedule: Q01DX005 (ip), vehicle: saline with Tween-80",6 of 6
same,survivor count,"dose: 15.0 mg/kg/injection, schedule: Q01DX005 (ip), vehicle: saline with Tween-80",6 of 6
same,survivor count,"dose: 30.0 mg/kg/injection, schedule: Q01DX005 (ip), vehicle: saline with Tween-80",6 of 6
same,survivor count,"dose: 60.0 mg/kg/injection, schedule: Q01DX005 (ip), vehicle: saline with Tween-80",6 of 6
same,survivor count,"dose: 120.0 mg/kg/injection, schedule: Q01DX005 (ip), vehicle: saline with Tween-80",5 of 6
same,survivor count,[2],6 of 6
CCCCCCCCCCCCSCN(CC)CC,T/C,[3],126 [5 of 6 alive] and 128 % of control
O=C(O)c1ccccc1SSc1ccccc1C(=O)O,survivor count,"dose: 200.0 mg/kg/injection, schedule: Q01DX009 (ip), vehicle: Klucel (hydroxypropylcellulose) (HPC)",4 of 6
same,survivor count,[4],0 of 6
Cc1c(N=Nc2ccc([N+](=O)[O-])cc2)nc2scc(-c3ccccc3)n12,T/C,"dose: 50.0 mg/kg/injection, schedule: Q04DX002 (ip), vehicle: Klucel (hydroxypropylcellulose) (HPC)",133 % of control
same,T/C,"dose: 100.0 mg/kg/injection, schedule: Q04DX002 (ip), vehicle: Klucel (hydroxypropylcellulose) (HPC)",136 % of control [4 of 6 alive]
same,survivor count,"dose: 200.0 mg/kg/injection, schedule: Q04DX002 (ip), vehicle: Klucel (hydroxypropylcellulose) (HPC)",6 of 6
same,survivor count,"dose: 400.0 mg/kg/injection, schedule: Q04DX002 (ip), vehicle: Klucel (hydroxypropylcellulose) (HPC)",6 of 6
O=c1[nH]c2ccc(Cl)cc2c2ccccc12,survivor count,[4],4 of 6
O=C(NCCN1C(=O)C2C3CCC(O3)C2C1=O)Nc1ccc([N+](=O)[O-])cc1[N+](=O)[O-] (stereo not drawn),survivor count,[2],6 of 6
N#CC1(C#N)C(c2ccccc2)C1(C#N)C#N,T/C,"dose: 25.0 mg/kg/injection, schedule: Q04DX003 (ip), vehicle: saline sonified",130 % of control
same,survivor count,"dose: 37.5 mg/kg/injection, schedule: Q04DX003 (ip), vehicle: saline with Tween-80",4 of 6
C/C(=N\NC(=S)N1CCC(C)CC1)c1cccc2cccnc12,survivor count,"dose: 200.0 mg/kg/injection, schedule: Q01DX005 (ip), vehicle: saline with Tween-80",5 of 6
C=NC1C=CCC=C1,survivor count,[5],6 of 6
C[n+]1ccc(/C(C#N)=N/O)cc1,survivor count,[4],1 of 6
NCC(O)c1cccc(C(F)(F)F)c1 (stereo not drawn),survivor count,[3],3 of 6
ClCC1CSC2(CCCCC2)O1 (stereo not drawn),T/C,[6],129 % of control
same,survivor count,"dose: 400.0 mg/kg/injection, schedule: Q01DX009 (ip), vehicle: saline with Tween-80",0 of 6
O=[N+]([O-])c1ccc(NN=NCCF)cc1,survivor count,"dose: 14.2 mg/kg/injection, schedule: Q01DX005 (ip), vehicle: other",3 of 5
same,survivor count,"dose: 28.4 mg/kg/injection, schedule: Q01DX005 (ip), vehicle: other",0 of 5
same,survivor count,"dose: 56.8 mg/kg/injection, schedule: Q01DX005 (ip), vehicle: other",0 of 5
CC(=NC(C)C)N1CCCCC1,survivor count,[3],0 of 6
Cc1ccc(C)c(NC(=O)Nc2nccs2)c1,survivor count,"dose: 100.0 mg/kg/injection, schedule: Q01DX009 (ip), vehicle: Klucel (hydroxypropylcellulose) (HPC)",0 of 6
CSc1cccc(NC(=O)Oc2c(Cl)cccc2Cl)c1,survivor count,"dose: 200.0 mg/kg/injection, schedule: Q01DX009 (ip), vehicle: gum acacia",6 of 6
CN1C2CCCC1CC1(C2)NC(=O)NC1=O (stereo not drawn),survivor count,"dose: 200.0 mg/kg/injection, schedule: Q01DX009 (ip), vehicle: water",0 of 6
N=C(N)c1ccc(-c2[nH]c3cc(C(=N)N)ccc3c2N)cc1,survivor count,[7],0 of 6
same,survivor count,[8],0 of 6
same,survivor count,[9],0 of 6
O=C(O)C1C2OC(C(Cl)C2Cl)C1C(=O)O (stereo not drawn),survivor count,"dose: 60.0 mg/kg/injection, schedule: Q01DX005 (ip), vehicle: saline",5 of 6
same,survivor count,"dose: 240.0 mg/kg/injection, schedule: Q01DX005 (ip), vehicle: saline",6 of 6
O=C(Nc1cccc(Cl)c1)ON1C(=O)C2C(C1=O)C1(Cl)C(Cl)C(Cl)C2(Cl)C1(Cl)Cl (stereo not drawn),T/C,"dose: 50.0 mg/kg/injection, schedule: Q01DX009 (ip), vehicle: saline with Tween-80",131 % of control
same,T/C,[6],128 % of control
CCO/C=C1/N=C(Cc2ccc(Br)cc2)OC1=O,survivor count,[2],6 of 6
COc1ccc2c(c1)OC(C)(C)C(c1ccccc1)C2c1ccc(O)c([N+](=O)[O-])c1 (stereo not drawn),survivor count,"dose: 200.0 mg/kg/injection, schedule: Q01DX005 (ip), vehicle: Klucel (hydroxypropylcellulose) (HPC)",4 of 6
[Ni].[O-][Cl+3]([O-])([O-])O.[O-][n+]1ccnc2ccccc21,T/C,[7],128 % of control [5 of 6 alive]
same,survivor count,[7],0 of 6
same,survivor count,[8],0 of 6 (2×)
same,survivor count,[9],0 of 6 (2×)
O=C1NN(c2ccccc2)C(=O)/C1=C\c1ccccc1O,survivor count,"dose: 87.5 mg/kg/injection, schedule: Q01DX009 (ip), vehicle: Klucel (hydroxypropylcellulose) (HPC)",4 of 6
NC(=O)CC(N)C(=O)O.[Cl-].[Cl-].[Cl-].[Cl-].[Pt+2] (stereo not drawn),survivor count,"dose: 12.5 mg/kg/injection, schedule: Q01DX009 (ip), vehicle: water",6 of 6
same,survivor count,"dose: 25.0 mg/kg/injection, schedule: Q01DX009 (ip), vehicle: water",5 of 6
Cc1ccc2c(c1)C=CC(C#N)N2C(=O)Oc1ccccc1 (stereo not drawn),survivor count,"dose: 12.5 mg/kg/injection, schedule: Q01DX009 (ip), vehicle: saline",6 of 6
same,survivor count,"dose: 50.0 mg/kg/injection, schedule: Q01DX009 (ip), vehicle: suspension in saline",6 of 6
same,survivor count,"dose: 100.0 mg/kg/injection, schedule: Q01DX009 (ip), vehicle: suspension in saline",6 of 6
same,survivor count,"dose: 200.0 mg/kg/injection, schedule: Q01DX009 (ip), vehicle: suspension in saline",6 of 6
CCCCCCCCCCC(O)CCCCCCCCCC,survivor count,"dose: 400.0 mg/kg/injection, schedule: Q04DX003 (ip), vehicle: saline with Tween-80",6 of 6
CC1(C)N=C(N)N=C(N)N1c1ccc(Cl)cc1,T/C,"dose: 50.0 mg/kg/injection, schedule: Q01DX005 (ip), vehicle: saline",126 % of control
same,survivor count,[1],0 of 5
same,survivor count,"dose: 200.0 mg/kg/injection, schedule: Q01DX005 (ip), vehicle: saline",0 of 5
CC1CCC(C(C)C)C(N)C1 (stereo not drawn),survivor count,"dose: 200.0 mg/kg/injection, schedule: Q04DX002 (ip), vehicle: saline with Tween-80",2 of 6
same,survivor count,[5],0 of 6
CC1(C)COC(c2ccc(Br)cc2)=N1,survivor count,"dose: 400.0 mg/kg/injection, schedule: Q01DX009 (ip), vehicle: other",2 of 6
